The values that follow come from paper PMC13199644, “Optimized Quantitative Bacterial Two-Hybrid (qB2H) for Protein–Protein Interaction Assessment” (Computational and Structural Biotechnology Journal, 2026).

The chains behind the UniProt entries cited, without tags or fusion partners. Residues count along the entry.
UniProt Q9NVP2, residues 1-156: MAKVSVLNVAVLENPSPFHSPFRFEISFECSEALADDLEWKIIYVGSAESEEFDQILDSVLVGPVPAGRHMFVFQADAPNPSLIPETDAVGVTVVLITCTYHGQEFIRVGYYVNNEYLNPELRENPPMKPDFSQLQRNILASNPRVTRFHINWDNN

Results are given in words; binding and its absence hold for the method and conditions named. Some results given as binding are weak or reduced against the parent protein; the word gives no strength.

For this experiment, the target named is cI_E34P fusion with the N-terminal domain of human ASF1B, ASF1BN (residues 1 to 156) (human) (UniProt Q9NVP2). The experiment can be described thus: two-hybrid; qB2H v4 interface mapping: single-mutant position libraries of ASF1BN with rpoA-ip3 or rpoA-HIRA in SB39, kanamycin selection, NGS before and after, enrichment normalized to wild type.

Consider “rpoA-HIRA fusion (HIRA residues 442-472, C465S) (from UniProt P54198 442-472) (domain or fragment)”, for which the binding entry was “binds”.
